Measurements as given in patent US7153650B2, “Marker system for preparing and characterizing high-quality human embryonic stem cells” (Geron Corporation, priority 2003, dated 2006).
At least one structure is not confirmed: it was looked up by name or label, or the drawing left a doubt.

Tested on: hES cells
Test: Quantitative RT-PCR analysis of gene expression in hESC differentiation (culture with RA or DMSO)
Format: cell-based, human
Conditions: H9 hES cells after culturing for 7 days with RA or DM (FIG. 1)
Method: To verify the expression patterns of particular genes of interest at the mRNA level, extracts of undifferentiated hES cells and their differentiated progeny were assayed by real-time PCR. Cells were cultured for 1 week with 0.5% dimethyl sulfoxide (DMSO) or 500 nM retinoic acid (RA). The samples were amplified using sequence-specific primers, and the rate of amplification was correlated with the expression level of each gene in the cell population.
Taqman™ RT-PCR was performed under the following conditions: 1×RT Master Mix (ABI), 300 nM for each primer, and 80 nM of probe, and 10 pg to 100 ng of total RNA in nuclease-free water. The reaction was conducted under default RT-PCR conditions of 48° C. hold for 30 min, 95° C. hold for 10 min, and 40 cycles of 95° C. at 15 sec and 60° C. hold for 1 min. RNA was isolated by a guanidinium isothiocyanate method (RNAeasy™ kit, Qiagen) according to manufacturer's instructions, and subsequently DNAse treated (DNAfree™ kit, Ambion). Gene-specific primers and probes were designed by PrimerExpress™ software (Ver. 1.5, ABI). […] Relative quantitation of gene expression between multiple samples was achieved by normalization against endogenous 18S ribosomal RNA (primer and probe from ABI) using the ΔΔCT method of quantitation (ABI). Fold change in expression level was calculated as 2^−ΔΔCT. […]

CC1=C(/C=C/C(C)=C/C=C/C(C)=C/C(=O)O)C(C)(C)CCC1 [RA, retinoic acid]
Gene expression of ICAM in differentiated cells: below the limit of detection | Gene expression of rhodopsin in differentiated cells: below the limit of detection
